# From patent US7485315B2, “Compositions comprising a compound of low solubility and a lipophilic amino acid derivative, uses thereof and process for dissolving a compound of low solubility” (L'Oreal, priority 2001, dated 2009)
# Some entries share one result that the patent states for a list of compounds.
# Assay: Solubility in water at 25° C.
structure (smiles),measurement,value
"C[C@]12CC[C@H](O)CC1=CC[C@@H]1[C@@H]2CC[C@]2(C)C(=O)CC[C@@H]12 [DHEA, dehydroepiandrosterone, reference compound]",Solubility in water at 25° C.,<1%
